Results: US20100021918A1, “METHOD FOR ASSAYING ACTION OF ANTITUMOR AGENT USING SPLICING DEFECTS AS INDEX” (Eisai R&D Management Co., Ltd., priority 2007, published 2010)
This continues a long series; more values of the same kind are listed elsewhere.

System: peripheral blood mononuclear cells (PBMC)
Test: Microarray analysis (3), dose-dependent intron expression in PBMC at 3, 10, 30 nM, Table 5
Assay type: cell-based, human
Method: PBMC was suspended in RPMI1640 medium (containing 10% FBS, penicillin, and streptomycin) to 5×10^6 cells/ml and 1 ml of the suspension was plated per well of a 24-well plate. Immediately, 111 μl of 10 times-concentrated (8E,12E,14E)-7-((4-cycloheptylpiperazin-1-yl)carbonyl)oxy-3,6,16,21-tetrahydroxy-6,10,12,16,20-pentamethyl-18,19-epoxytricosa-8,12,14-trien-11-olide was added to the well (six wells per each concentration tested). The cells were then cultured in an incubator with 5% carbon dioxide gas at 37° C. Three hours later, the supernatant was collected and centrifuged at 1500 rpm for five minutes. TRI reagent (SIGMA) (1 ml) was added to each well of the plate from which the supernatant was removed to harvest the cells, which was added to the centrifuged pellet to dissolve. RNA was purified in accordance with the protocol of TRI reagent. RNA was further purified using RNeasy (QIAGEN) and, in accordance with the protocol, DNaseI was added to the samples during the procedure. Absorbance at 260 nm was measured to quantify an amount of RNA.
Ribosomal RNA was removed from 1 μg of each total RNA of control cells (n=3) and cells with the treatment (n=3) using RiboMinus Human/Mouse Transcriptome Isolation Kit (Invitrogen). Single stranded cDNA synthesis, double stranded cDNA synthesis, cRNA synthesis, second single stranded cDNA synthesis, cDNA fragmentation, and cDNA labeling in order were carried out for total RNA from which ribosomal RNA was removed, using GeneChip Whole Transcript Sense Target Labeling and Control Reagents (Affymetrix) to make a cDNA probe. Subsequently, the cDNA probe was used for hybridization with Human Exon 1.0 ST Array (Affymetrix). The array was washed and stained, and luminescence intensity was measured by a scanner.
The expression level of the probe set and the gene was quantified by using Expression Console Ver. 1.0 (Affymetrix) with Summarization Method and Normalization Method being set to “Median polish as used in RMA” and “None”, respectively. The expression level of the probe was normalized with that of the gene.
Probe sets showing that the normalized change in the level expression of the probe set in the group with the treatment at 30 nM was more than 5 times; the expression level of the probe set and the gene in the group with the treatment at 30 nM was more than 100; and probe set annotation was “extended, full, free”, were picked out. Regression analysis was performed with the probe sets extracted for the control group, the group with the treatment at 3 nM, the group with the treatment at 10 nM, and the group with the treatment at 30 nM to determine a p and q value for the slope of regression formula. A gene containing the probe sets with the q value of less than 5% was determined as a candidate gene with increased expression level of the intron regions (Table 5).
In Table 5, for the gene evaluated, gene name (Gene Name), abbreviated name (Gene Symbol), accession number (Accession), alias name (Synonym), transcription cluster number in Human Exon 1.0 ST Array (Human Exon 1.0 ST Array Transcription Cluster ID), chromosome number (Chromosome), type of strand (Strand), start region (Start), stop region (Stop), and change in expression level per 1 nM (Fold Change/nM) were respectively shown.

With CCC(O)C(C)C1OC1CC(C)(O)/C=C/C=C(\C)C1OC(=O)CC(O)CCC(C)(O)C(OC(=O)N2CCN(C3CCCCCC3)CC2)/C=C/C1C (centres unmarked) [E7107, (8E,12E,14E)-7-((4-cycloheptylpiperazin-1-yl)carbonyl)oxy-3,6,16,21-tetrahydroxy-6,10,12,16,20-pentamethyl-18,19-epoxytricosa-8,12,14-trien-11-olide] the “Fold Change/nM” value (introns of gene FLJ12529, regression over control, 3, 10, 30 nM) was 1.04 nM⁻¹, the “Fold Change/nM” value (introns of gene FLJ21438, regression over control, 3, 10, 30 nM) was 1.04 nM⁻¹ and the “Fold Change/nM” value (introns of gene FNDC3B, regression over control, 3, 10, 30 nM) was 1.06 nM⁻¹. The “Fold Change/nM” value (introns of gene FOSB, regression over control, 3, 10, 30 nM) was 1.04 nM⁻¹, the “Fold Change/nM” value (introns of gene FOXO1A, regression over control, 3, 10, 30 nM) was 1.04 nM⁻¹ and the “Fold Change/nM” value (introns of gene FUS, regression over control, 3, 10, 30 nM) was 1.04 nM⁻¹. For the same molecule, the “Fold Change/nM” value (introns of gene GAB2, regression over control, 3, 10, 30 nM) was 1.07 nM⁻¹, the “Fold Change/nM” value (introns of gene GCC2, regression over control, 3, 10, 30 nM) was 1.06 nM⁻¹ and the “Fold Change/nM” value (introns of gene GNL2, regression over control, 3, 10, 30 nM) was 1.06 nM⁻¹. The “Fold Change/nM” value (introns of gene GPIAP1, regression over control, 3, 10, 30 nM) was 1.04 nM⁻¹, the “Fold Change/nM” value (introns of gene GRASP, regression over control, 3, 10, 30 nM) was 1.04 nM⁻¹ and the “Fold Change/nM” value (introns of gene GRB2, regression over control, 3, 10, 30 nM) was 1.06 nM⁻¹. For the same molecule, the “Fold Change/nM” value (introns of gene GTPBP2, regression over control, 3, 10, 30 nM) was 1.04 nM⁻¹, the “Fold Change/nM” value (introns of gene HERC1, regression over control, 3, 10, 30 nM) was 1.04 nM⁻¹ and the “Fold Change/nM” value (introns of gene HERPUD1, regression over control, 3, 10, 30 nM) was 1.06 nM⁻¹. The “Fold Change/nM” value (introns of gene HLA-E, regression over control, 3, 10, 30 nM) was 1.04 nM⁻¹, the “Fold Change/nM” value (introns of gene HRB, regression over control, 3, 10, 30 nM) was 1.04 nM⁻¹ and the “Fold Change/nM” value (introns of gene HSP90AA1 // HSP90AA2 // HSP90AA6P, regression over control, 3, 10, 30 nM) was 1.06 nM⁻¹. For the same molecule, the “Fold Change/nM” value (introns of gene HSPA5, regression over control, 3, 10, 30 nM) was 1.08 nM⁻¹, the “Fold Change/nM” value (introns of gene IARS, regression over control, 3, 10, 30 nM) was 1.05 nM⁻¹ and the “Fold Change/nM” value (introns of gene IBRDC3, regression over control, 3, 10, 30 nM) was 1.06 nM⁻¹. The “Fold Change/nM” value (introns of gene IL1A, regression over control, 3, 10, 30 nM) was 1.07 nM⁻¹, the “Fold Change/nM” value (introns of gene IL1RN, regression over control, 3, 10, 30 nM) was 1.08 nM⁻¹ and the “Fold Change/nM” value (introns of gene INPP5A, regression over control, 3, 10, 30 nM) was 1.07 nM⁻¹. For the same molecule, the “Fold Change/nM” value (introns of gene IRAK2, regression over control, 3, 10, 30 nM) was 1.06 nM⁻¹, the “Fold Change/nM” value (introns of gene ITGA5, regression over control, 3, 10, 30 nM) was 1.06 nM⁻¹ and the “Fold Change/nM” value (introns of gene ITGB1, regression over control, 3, 10, 30 nM) was 1.04 nM⁻¹. The “Fold Change/nM” value (introns of gene JARID2 // C20orf120, regression over control, 3, 10, 30 nM) was 1.04 nM⁻¹, the “Fold Change/nM” value (introns of gene JMJD1A, regression over control, 3, 10, 30 nM) was 1.04 nM⁻¹ and the “Fold Change/nM” value (introns of gene JMJD2C, regression over control, 3, 10, 30 nM) was 1.04 nM⁻¹. For the same molecule, the “Fold Change/nM” value (introns of gene KIAA0317, regression over control, 3, 10, 30 nM) was 1.04 nM⁻¹, the “Fold Change/nM” value (introns of gene KIAA0430, regression over control, 3, 10, 30 nM) was 1.04 nM⁻¹ and the “Fold Change/nM” value (introns of gene KIAA0652, regression over control, 3, 10, 30 nM) was 1.04 nM⁻¹. The “Fold Change/nM” value (introns of gene KIAA0831, regression over control, 3, 10, 30 nM) was 1.04 nM⁻¹, the “Fold Change/nM” value (introns of gene KIAA1128, regression over control, 3, 10, 30 nM) was 1.04 nM⁻¹ and the “Fold Change/nM” value (introns of gene LBR, regression over control, 3, 10, 30 nM) was 1.04 nM⁻¹. The “Fold Change/nM” value (introns of gene LCP1, regression over control, 3, 10, 30 nM) was 1.04 nM⁻¹, the “Fold Change/nM” value (introns of gene LDB1, regression over control, 3, 10, 30 nM) was 1.05 nM⁻¹ and the “Fold Change/nM” value (introns of gene LPXN, regression over control, 3, 10, 30 nM) was 1.06 nM⁻¹. For the same molecule, the “Fold Change/nM” value (introns of gene LRPPRC, regression over control, 3, 10, 30 nM) was 1.04 nM⁻¹, the “Fold Change/nM” value (introns of gene LSM14A, regression over control, 3, 10, 30 nM) was 1.05 nM⁻¹ and the “Fold Change/nM” value (introns of gene LYN, regression over control, 3, 10, 30 nM) was 1.04 nM⁻¹. The “Fold Change/nM” value (introns of gene MARCKS, regression over control, 3, 10, 30 nM) was 1.07 nM⁻¹, the “Fold Change/nM” value (introns of gene MAZ // KIF22, regression over control, 3, 10, 30 nM) was 1.04 nM⁻¹ and the “Fold Change/nM” value (introns of gene MCTP1, regression over control, 3, 10, 30 nM) was 1.05 nM⁻¹. The “Fold Change/nM” value (introns of gene MGAT4A // MGC52110, regression over control, 3, 10, 30 nM) was 1.07 nM⁻¹, the “Fold Change/nM” value (introns of gene MGC40489, regression over control, 3, 10, 30 nM) was 1.05 nM⁻¹ and the “Fold Change/nM” value (introns of gene MKLN1, regression over control, 3, 10, 30 nM) was 1.07 nM⁻¹. The “Fold Change/nM” value (introns of gene MLL5, regression over control, 3, 10, 30 nM) was 1.06 nM⁻¹, the “Fold Change/nM” value (introns of gene MPP7, regression over control, 3, 10, 30 nM) was 1.07 nM⁻¹ and the “Fold Change/nM” value (introns of gene MRPS7, regression over control, 3, 10, 30 nM) was 1.04 nM⁻¹. The “Fold Change/nM” value (introns of gene MSC, regression over control, 3, 10, 30 nM) was 1.06 nM⁻¹, the “Fold Change/nM” value (introns of gene NARG2, regression over control, 3, 10, 30 nM) was 1.04 nM⁻¹ and the “Fold Change/nM” value (introns of gene NBN, regression over control, 3, 10, 30 nM) was 1.06 nM⁻¹. For the same molecule, the “Fold Change/nM” value (introns of gene NDUFA5, regression over control, 3, 10, 30 nM) was 1.04 nM⁻¹ and the “Fold Change/nM” value (introns of gene NECAP2, regression over control, 3, 10, 30 nM) was 1.06 nM⁻¹.
